# Measurements from PMC4671574.
# The chains behind the UniProt entries cited, without tags or fusion partners. Where a name states a change or a piece, a line headed by the entry shows the natural chain unless it says otherwise.
# UniProt Q03532: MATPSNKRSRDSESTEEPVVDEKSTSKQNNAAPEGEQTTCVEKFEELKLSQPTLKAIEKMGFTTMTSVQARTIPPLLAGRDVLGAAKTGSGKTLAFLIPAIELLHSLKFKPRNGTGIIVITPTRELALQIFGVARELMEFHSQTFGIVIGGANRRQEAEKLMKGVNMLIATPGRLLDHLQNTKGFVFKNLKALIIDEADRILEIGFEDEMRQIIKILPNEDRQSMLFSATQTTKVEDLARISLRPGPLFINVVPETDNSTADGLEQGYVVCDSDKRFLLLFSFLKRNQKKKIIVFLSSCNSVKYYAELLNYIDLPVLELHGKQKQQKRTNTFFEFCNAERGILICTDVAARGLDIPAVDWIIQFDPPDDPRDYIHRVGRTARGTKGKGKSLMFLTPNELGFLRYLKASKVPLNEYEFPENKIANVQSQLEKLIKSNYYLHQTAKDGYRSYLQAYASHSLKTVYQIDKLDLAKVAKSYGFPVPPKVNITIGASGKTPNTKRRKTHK
# UniProt P40007: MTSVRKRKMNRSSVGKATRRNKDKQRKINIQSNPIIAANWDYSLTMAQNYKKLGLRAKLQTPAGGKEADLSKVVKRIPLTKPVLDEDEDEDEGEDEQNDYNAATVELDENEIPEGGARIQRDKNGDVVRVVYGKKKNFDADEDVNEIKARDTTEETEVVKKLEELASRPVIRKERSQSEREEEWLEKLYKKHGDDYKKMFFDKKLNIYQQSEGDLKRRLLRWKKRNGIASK
# UniProt P14126: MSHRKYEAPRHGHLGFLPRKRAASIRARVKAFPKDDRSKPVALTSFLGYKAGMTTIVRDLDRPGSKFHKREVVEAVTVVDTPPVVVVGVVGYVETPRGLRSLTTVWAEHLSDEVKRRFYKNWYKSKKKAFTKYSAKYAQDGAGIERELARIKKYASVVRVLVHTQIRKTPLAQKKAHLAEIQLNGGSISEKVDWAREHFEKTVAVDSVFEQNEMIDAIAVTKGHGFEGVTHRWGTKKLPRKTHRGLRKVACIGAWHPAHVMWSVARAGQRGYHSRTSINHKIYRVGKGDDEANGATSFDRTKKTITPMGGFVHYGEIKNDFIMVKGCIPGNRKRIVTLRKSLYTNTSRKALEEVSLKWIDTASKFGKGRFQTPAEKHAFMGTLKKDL
# UniProt P05737: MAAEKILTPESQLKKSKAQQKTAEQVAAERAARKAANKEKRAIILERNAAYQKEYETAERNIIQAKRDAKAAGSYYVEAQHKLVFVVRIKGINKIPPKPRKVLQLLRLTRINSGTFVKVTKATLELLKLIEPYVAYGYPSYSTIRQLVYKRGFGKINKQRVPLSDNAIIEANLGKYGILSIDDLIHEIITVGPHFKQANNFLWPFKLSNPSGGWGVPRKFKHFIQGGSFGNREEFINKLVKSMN
# UniProt P17076: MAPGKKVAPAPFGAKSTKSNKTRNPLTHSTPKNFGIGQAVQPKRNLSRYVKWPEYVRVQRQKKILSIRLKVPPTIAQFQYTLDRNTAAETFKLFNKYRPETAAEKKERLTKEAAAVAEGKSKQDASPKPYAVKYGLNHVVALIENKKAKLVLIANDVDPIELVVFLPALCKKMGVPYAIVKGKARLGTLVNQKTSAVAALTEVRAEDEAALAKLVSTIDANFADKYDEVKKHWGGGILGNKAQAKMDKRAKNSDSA
# UniProt Q12690: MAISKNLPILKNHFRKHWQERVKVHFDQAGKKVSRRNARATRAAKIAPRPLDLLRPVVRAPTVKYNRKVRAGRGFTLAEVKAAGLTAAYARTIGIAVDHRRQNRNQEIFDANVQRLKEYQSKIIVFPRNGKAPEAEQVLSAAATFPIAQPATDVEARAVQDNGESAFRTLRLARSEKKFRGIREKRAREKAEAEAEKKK
# UniProt P36105: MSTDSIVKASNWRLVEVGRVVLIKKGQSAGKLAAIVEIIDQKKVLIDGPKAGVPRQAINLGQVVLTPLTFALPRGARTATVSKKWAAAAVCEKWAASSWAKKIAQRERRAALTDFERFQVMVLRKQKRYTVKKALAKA
# UniProt P05748: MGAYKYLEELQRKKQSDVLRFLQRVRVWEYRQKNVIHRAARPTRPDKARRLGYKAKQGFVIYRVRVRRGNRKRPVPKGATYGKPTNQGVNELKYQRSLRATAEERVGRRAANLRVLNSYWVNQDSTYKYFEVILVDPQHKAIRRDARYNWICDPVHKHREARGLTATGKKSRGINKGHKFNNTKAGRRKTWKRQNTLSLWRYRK
# UniProt P05740: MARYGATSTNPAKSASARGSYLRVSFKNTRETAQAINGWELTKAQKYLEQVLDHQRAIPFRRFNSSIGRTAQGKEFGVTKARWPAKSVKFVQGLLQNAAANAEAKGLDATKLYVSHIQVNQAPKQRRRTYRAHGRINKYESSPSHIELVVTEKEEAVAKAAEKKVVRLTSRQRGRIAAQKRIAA
# UniProt P0CX82: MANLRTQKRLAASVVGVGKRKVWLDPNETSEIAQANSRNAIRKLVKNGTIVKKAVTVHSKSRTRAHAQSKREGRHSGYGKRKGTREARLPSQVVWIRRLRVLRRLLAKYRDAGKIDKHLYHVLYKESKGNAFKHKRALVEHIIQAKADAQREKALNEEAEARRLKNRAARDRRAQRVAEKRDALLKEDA
# UniProt P38061: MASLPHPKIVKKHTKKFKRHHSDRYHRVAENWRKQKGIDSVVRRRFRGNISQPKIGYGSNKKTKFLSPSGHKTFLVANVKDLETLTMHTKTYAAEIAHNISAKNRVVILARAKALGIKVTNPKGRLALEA
# UniProt P05744: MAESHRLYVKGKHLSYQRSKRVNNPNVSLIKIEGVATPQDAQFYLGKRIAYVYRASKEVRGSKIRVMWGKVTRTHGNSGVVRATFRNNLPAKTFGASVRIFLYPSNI
# UniProt P05745: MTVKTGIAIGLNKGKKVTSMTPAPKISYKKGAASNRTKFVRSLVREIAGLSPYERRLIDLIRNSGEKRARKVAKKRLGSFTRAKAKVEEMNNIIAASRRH
# UniProt P04650: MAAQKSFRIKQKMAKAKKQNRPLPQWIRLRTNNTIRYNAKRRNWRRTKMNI
# T1: Noc2-TAP (S. cerevisiae) (UniProt P39744)
# T1 sequence: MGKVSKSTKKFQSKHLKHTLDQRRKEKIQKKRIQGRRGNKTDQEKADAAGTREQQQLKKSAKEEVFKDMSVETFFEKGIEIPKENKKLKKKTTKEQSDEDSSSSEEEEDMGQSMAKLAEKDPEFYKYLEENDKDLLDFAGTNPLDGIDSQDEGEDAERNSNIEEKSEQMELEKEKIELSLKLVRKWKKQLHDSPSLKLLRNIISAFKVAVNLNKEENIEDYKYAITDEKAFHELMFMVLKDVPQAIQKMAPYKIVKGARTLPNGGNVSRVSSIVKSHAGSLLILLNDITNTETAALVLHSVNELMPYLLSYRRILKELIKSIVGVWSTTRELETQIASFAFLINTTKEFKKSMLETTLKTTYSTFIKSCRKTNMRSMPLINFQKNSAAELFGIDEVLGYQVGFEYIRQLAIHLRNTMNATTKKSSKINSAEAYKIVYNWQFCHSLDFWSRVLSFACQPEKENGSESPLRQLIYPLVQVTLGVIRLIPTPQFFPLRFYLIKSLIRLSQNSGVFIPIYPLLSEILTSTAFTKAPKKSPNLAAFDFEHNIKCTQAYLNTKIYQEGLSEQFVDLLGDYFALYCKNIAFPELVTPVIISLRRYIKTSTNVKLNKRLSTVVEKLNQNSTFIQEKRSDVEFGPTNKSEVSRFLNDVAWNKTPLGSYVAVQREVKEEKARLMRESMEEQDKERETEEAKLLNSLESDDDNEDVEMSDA
# Molecular target: T1, Noc2-TAP (S. cerevisiae)
# Assay: affinity purification with mass spectrometry; Noc2-TAP and associated pre-ribosomal particles purified on magnetic beads coated with rabbit IgG from total cellular extracts of yeast (wild type and GAL1/10 r-protein expression mutants after 4 h in glucose medium); eluted proteins digested with trypsin, peptides labelled with iTRAQ and identified by mass spectrometry; levels normalised to Noc2-TAP
row,binding,Molecule
1,binds,Has1 (from UniProt Q03532 1-505)
2,binds,Nop16 (from UniProt P40007 1-231)
3,binds,rpL3/uL3 (from UniProt P14126 1-387)
4,binds,rpL6/eL6 (S. cerevisiae (endogenous in yeast))
5,binds,rpL7/uL30 (from UniProt P05737)
6,binds,rpL8/eL8 (from UniProt P17076)
7,binds,rpL13/eL13 (from UniProt Q12690)
8,binds,rpL14/eL14 (from UniProt P36105)
9,binds,rpL15/eL15 (from UniProt P05748)
10,binds,rpL16/uL13 (S. cerevisiae (endogenous in yeast))
11,binds,rpL17/uL22 (from UniProt P05740)
12,binds,rpL19/eL19 (from UniProt P0CX82 1-189)
13,binds,rpL32/eL32 (from UniProt P38061 1-130)
14,binds,rpL33/eL33 (from UniProt P05744)
15,binds,rpL36/eL36 (from UniProt P05745)
16,binds,rpL39/eL39 (from UniProt P04650 1-51)
17,binds,"Cic1 (protein, UniProt P38779 1-376) MAKKSNSKKSTPVSTPSKEKKKVIEKKSSTAIPRERVIKAVNELIKFTSKPQDENNEEGNNGKKNLLEDDEEELKKDLQLIVVNNKSFTGTSKSFKLKLLNVKHSFYKPWKEASATAVKDFKVLLILKDSDIKKVSEDDLFDQLDSEGIKVDEIICGKDLKTVYKAYEARNAFISQFSLILADDSIVTSLPKLMGGKAYNKVETTPISIRTHANKEFSLTTLTNNIKKVYMNQLPVKLPRGTTLNVHLGNLEWLRPEEFVDNVELISEQLIKAYQIRSIFIKTNRSPVLPLYYNQDVLDELEAKKDKIEETHEDDMVTIDGVQVHLSTFNKGLMEIANPSELGSIFSKQINNAKKRSSSELEKESSESEAVKKAKS"
18,binds,"Rpf1 (protein, UniProt P38805 1-295) MALGNEINITNKLKRQEIFADIKHEKNKERHTMRRKRAKEERENPELREQRLKENVTQTIENTRVYDETINKEVEGDEDDLMRYFNSNSNEPPKIFLTTNVNAKKSAYEFANILIEILPNVTFVKRKFGYKLKEISDICIKRNFTDIVIINEDKKKVTGLTFIHLPEGPTFYFKLSSFVEVKKIVGHGRPTSHIPELILNNFQTRLGQTVGRLFQSILPQNPDIEGRQVITLHNQRDYIFFRRHRYVFKDNERVGLQELGPQFTLKLKRLQRGIKEETEWEHKPEMDKEKKKFYL"
19,binds,"Mak5 (protein, UniProt P38112 1-773) MGKKRAPQKGKTVTKPQEIIVDESKLNWKPVDIPDTLDDFGGFYGLEEIDGVDVKVVDGKVTFVTKKDSKVLKDSNKEKVGDDQESVENESGSDSESELLEFKNLDDIKEGELSAASYSSSDEDEQGNIESSKLTDPSEDVDEDVDEDVLKENVFNKDINIDDISPVNLPEWTNLAPLSMTILQSLQNLNFLRPTEIQKKSIPVIMQGVDVMGKASTGSGKTLAYGIPIVEKLISNFSQKNKKPISLIFTPTRELAHQVTDHLKKICEPVLAKSQYSILSLTGGLSIQKQQRLLKYDNSGQIVIATPGRFLELLEKDNTLIKRFSKVNTLILDEADRLLQDGHFDEFEKIIKHLLVERRKNRENSEGSSKIWQTLIFSATFSIDLFDKLSSSRQVKDRRFKNNEDELNAVIQHLMSKIHFNSKPVIIDTNPESKVSSQIKESLIECPPLERDLYCYYFLTMFPGTTLIFCNAIDSVKKLTVYLNNLGIPAFQIHSSMTQKNRLKSLERFKQQSAKQKTINHSNPDSVQLSTVLIASDVAARGLDIPGVQHVIHYHLPRSTDIYIHRSGRTARAGSEGVSAMICSPQESMGPLRKLRKTLATKNSVSTDLNSRSTNRKPIKWQNTVPLLPIETDILSQLRERSRLAGELADHEIASNSLRKDDNWLKKAADELGIDVDSDEDDISKSNSDTFLLKNKNKKMQKTINKDKVKAMRATLNELLSVPIRKDRRQKYLTGGLVNLADNLVKKRGHNSIIGHEKTNALETLKKKKKRNN"
20,binds,"Nug1 (protein, UniProt P40010 1-520) MRVRKRQSRRTSTKLKEGIKKKASAHRKKEKKMAKKDVTWRSRSKKDPGIPSNFPYKAKILEEIEAKKMKDLEERELAKQQRLEARKAAKEQGVDAMDEDMIEDDENGLAALVESAQQAAAEYEGTPSNDADVRDDELDVIDYNIDFYGEDVEGESELEKSRKAYDKIFKSVIDASDVILYVLDARDPESTRSRKVEEAVLQSQGKRLILILNKVDLIPPHVLEQWLNYLKSSFPTIPLRASSGAVNGTSFNRKLSQTTTASALLESLKTYSNNSNLKRSIVVGVIGYPNVGKSSVINALLARRGGQSKACPVGNEAGVTTSLREIKIDNKLKILDSPGICFPSENKKRSKVEHEAELALLNALPAKHIVDPYPAVLMLVKRLAKSDEMTESFKKLYEIPPIPANDADTFTKHFLIHVARKRGRLGKGGIPNLASAGLSVLNDWRDGKILGWVLPNTSAAASQQDKQNLSTINTGTKQAPIAANESTIVSEWSKEFDLDGLFSSLDKAIDASKDQDTMME"
21,binds,"Rlp7 (protein, UniProt P40693 1-322) MSSTQDSKAQTLNSNPEILLRKRRNADRTRIERQELAKKKREEQIKKKRSNKNKFVRAESIVAKTLATSREKERIKRVSILEDKKAKNETQHIASGKDFILKITEKANGAEENSVDLEETEEEEDDGLIREKTTYDGKPALLFIVRVRGPLAVNIPNKAFKILSLLRLVETNTGVFVKLTKNVYPLLKVIAPYVVIGKPSLSSIRSLIQKRGRIIYKGENEAEPHEIVLNDNNIVEEQLGDHGIICVEDIIHEIATMGESFSVCNFFLQPFKLNREVSGFGSLNRLRKIKQREAESRTRQFSNAATAPVIEVDIDSLLAKLN"
22,binds,"Rrp17 (protein, UniProt Q04031 1-235) MAVHTNRQILTRGKNYATKQSKKFGTDEVTFDKDSRLDYLTGFHKRKLQRQKKAQEFIKEQERLRKIEERQKIRQERKEVMEEQLKTFKESLNLEAEIEDAKNDKTEDLQVESDESWHGFDSDKDDGDNDNNESSVKPILKKGAITEIYDDSTTVELETLEPNDNFEYLAQLNNVKLEKAEKVLKQSINRATKYAKFLGVDEKQKKKPRVKKFRYLTKNERRINQRKANDNKRRR"
23,binds,"rpL18/eL18 (protein, UniProt P0CX49 1-186) MGIDHTSKQHKRSGHRTAPKSDNVYLKLLVKLYTFLARRTDAPFNKVVLKALFLSKINRPPVSVSRIARALKQEGAANKTVVVVGTVTDDARIFEFPKTTVAALRFTAGARAKIVKAGGECITLDQLAVRAPKGQNTLILRGPRNSREAVRHFGMGPHKGKAPRILSTGRKFERARGRRRSKGFKV"
24,binds,"rpL20/eL20 (protein, UniProt P0CX23 1-172) MAHFKEYQVIGRRLPTESVPEPKLFRMRIFASNEVIAKSRYWYFLQKLHKVKKASGEIVSINQINEAHPTKVKNFGVWVRYDSRSGTHNMYKEIRDVSRVAAVETLYQDMAARHRARFRSIHILKVAEIEKTADVKRQYVKQFLTKDLKFPLPHRVQKSTKTFSYKRPSTFY"
25,binds,"Nop7 (protein, UniProt P53261 1-605) MRIKKKNTRGNARNFITRSQAVRKLQVSLADFRRLCIFKGIYPREPRNKKKANKGSTAPTTFYYAKDIQYLMHEPVLAKFREHKTFARKLTRALGRGEVSSAKRLEENRDSYTLDHIIKERYPSFPDAIRDIDDALNMLFLFSNLPSTNQVSSKIINDAQKICNQWLAYVAKERLVRKVFVSIKGVYYQANIKGEEVRWLVPFKFPENIPSDVDFRIMLTFLEFYSTLLHFVLYKLYTDSGLIYPPKLDLKKDKIISGLSSYILESRQEDSLLKLDPTEIEEDVKVESLDASTLKSALNADEANTDETEKEEEQEKKQEKEQEKEQNEETELDTFEDNNKNKGDILIQPSKYDSPVASLFSAFVFYVSREVPIDILEFLILSCGGNVISEAAMDQIENKKDIDMSKVTHQIVDRPVLKNKVAGRTYIQPQWIFDCINKGELVPANKYLPGEALPPHLSPWGDAIGYDPTAPVEEGEEEESESESESEDQVEEEDQEVVAGEEDDDDDEELQAQKELELEAQGIKYSETSEADKDVNKSKNKKRKVDEEEEEKKLKMIMMSNKQKKLYKKMKYSNAKKEEQAENLKKKKKQIAKQKAKLNKLDSKK"
26,binds,"Pwp1 (protein, UniProt P21304 1-576) MISATNWVPRGFSSEFPEKYVLDDEEVERINQLAQLNLDDAKATLEEAEGESGVEDDAATGSSNKLKDQLDIDDDLKEYNLEEYDDEEIADNEGGKDVSMFPGLSNDSDVKFHEGEKGEDPYISLPNQEDSQEEKQELQVYPSDNLVLAARTEDDVSYLDIYVYDDGAGFHSSDIPVEEGDEADPDVARGLVRDPALYVHHDLMLPAFPLCVEWLDYKVGSNSEEAANYAAIGTFDPQIEIWNLDCVDKAFPDMILGEPLDNSMVSLKSKKKKKKSKTGHITTHHTDAVLSMAHNKYFRSVLASTSADHTVKLWDLNSGNAARSLASIHSNKNVSSSEWHMLNGSILLTGGYDSRVALTDVRISDESQMSKYWSAMAGEEIETVTFASENIILCGTDSGNVYSFDIRNNENRKPVWTLKAHDAGISTLCSNKFIPGMMSTGAMGEKTVKLWKFPLDDATNTKGPSMVLSRDFDVGNVLTSSFAPDIEVAGTMVIGGVNKVLKLWDVFTNRSVRKSFKSELENVQARAKEEAQKIGKSSRIARKYTSNDNPDTVITIDDQGEDEEEREGGDEHDDMA"

# No constants are given. Whether binding was seen depends on the method and setting. In cells and extracts the contact can be indirect. These calls come from enrichment with a bait or labelling near it, and not all partners need be listed.
